The record followed here is PMC12572126.

Chains of the proteins cited; added tags and fusions are not shown. Lines headed by an entry give the natural chain unless they say otherwise; changes in a name come on top.
UniProt G0S5M5: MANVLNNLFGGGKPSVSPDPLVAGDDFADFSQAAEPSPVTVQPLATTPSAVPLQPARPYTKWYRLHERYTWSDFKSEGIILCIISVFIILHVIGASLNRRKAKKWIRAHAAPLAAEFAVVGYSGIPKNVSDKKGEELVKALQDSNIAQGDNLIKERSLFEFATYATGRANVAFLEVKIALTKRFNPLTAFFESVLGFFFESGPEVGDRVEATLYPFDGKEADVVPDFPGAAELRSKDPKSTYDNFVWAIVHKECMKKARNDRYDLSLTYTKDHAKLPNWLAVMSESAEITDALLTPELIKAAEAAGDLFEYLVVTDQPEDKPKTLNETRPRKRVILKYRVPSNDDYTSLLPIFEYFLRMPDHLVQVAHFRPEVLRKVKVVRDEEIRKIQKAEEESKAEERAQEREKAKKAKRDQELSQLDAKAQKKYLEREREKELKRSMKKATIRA

These are yes or no findings as the source states them, for the method shown. Binding can be weak; no strength is given. For some assays here: Binding seen in cells or lysates may run through a third protein.

The target of experiment [1] is Chaetomium thermophilum CCDC47 with a FLAG tag (Chaetomium thermophilum) (UniProt G0S5M5). The experiment can be described thus: co-IP; FLAG-IP of ctCCDC47-FLAG on anti-FLAG M2 affinity gel from membranes solubilised in 1.5% digitonin, eluted with 3xFLAG peptide; Coomassie staining and western blotting.
Experiment [2] has the same target. The experiment can be described thus: cryo-EM structure; single-particle cryo-EM of the ribosome-bound SND3 translocon purified natively by FLAG-IP of ctCCDC47-FLAG and ribosome pelleting, in 0.25% digitonin; overall 2.2 Å, 3-6 Å in the micelle.

On to “Chaetomium thermophilum SND3 with a C-terminal TwinStrep tag (from UniProt G0RYQ7)”, for which the binding result in experiment [1] and in experiment [2] was “binds” in each case.
